Experimental data: PubChem BioAssay AID1259405 (NCATS, 2018)

Aim: 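Mouse-designed siRNAs used to find CHO productivity engineering targets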 (primary screen)
System: Chinese hamster CHO-K1 ovary cells with stable secreted eGFP expression
Reagent: single siRNA against mouse genes, 0.8 pmol siRNA per well (2 µl of 400 nM stock)
Time to read-out: 3 days
Read-out: 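Percent of the per-plate non-targeting control median for intracellular GFP per well by laser scanning cytometry and for cell viability by ATP luminescence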
Scale: GFP, % of control: higher = more GFP per well, higher productivity; viability (ATP), % of control: higher = more viable cells (more ATP)
Rule for the call: 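a knock-down is called active if GFP reaches 120% or more of non-targeting control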
Here is a random part of about 50,000 reagents tested. Of all reagents, about 4,000 (8%) are marked active. 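Mouse siRNA library applied to hamster cells; one well for each siRNA.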 Unmarked entries are inactive. The numbers tell different reagents against one gene apart.

Or5d43 #1: GFP, % of control = 93.8; viability (ATP), % of control = 67
Or5d43 #2: GFP, % of control = 124 (active); viability (ATP), % of control = 95.4
Or5d43 #3: GFP, % of control = 48; viability (ATP), % of control = 56.4
Gtpbp3 #1: GFP, % of control = 84.5; viability (ATP), % of control = 75.9
Gtpbp3 #2: GFP, % of control = 91.4; viability (ATP), % of control = 80.3
Gtpbp3 #3: GFP, % of control = 89.8; viability (ATP), % of control = 55.4
Ruvbl1 #1: GFP, % of control = 57.7; viability (ATP), % of control = 61.4
Ruvbl1 #2: GFP, % of control = 146 (active); viability (ATP), % of control = 84.2
Ruvbl1 #3: GFP, % of control = 79.5; viability (ATP), % of control = 79.5
Nppc #1: GFP, % of control = 85.4; viability (ATP), % of control = 59
Nppc #2: GFP, % of control = 71; viability (ATP), % of control = 104
Nppc #3: GFP, % of control = 96.9; viability (ATP), % of control = 58.2
Eif3k #1: GFP, % of control = 124 (active); viability (ATP), % of control = 93.2
Eif3k #2: GFP, % of control = 67.5; viability (ATP), % of control = 83.2
Eif3k #3: GFP, % of control = 42.1; viability (ATP), % of control = 26.9
Slc25a35 #1: GFP, % of control = 142 (active); viability (ATP), % of control = 136
Slc25a35 #2: GFP, % of control = 58.9; viability (ATP), % of control = 52.2
Slc25a35 #3: GFP, % of control = 108; viability (ATP), % of control = 89.9
Or9a7 #1: GFP, % of control = 49.2; viability (ATP), % of control = 47.8
Or9a7 #2: GFP, % of control = 133 (active); viability (ATP), % of control = 108
Or9a7 #3: GFP, % of control = 99.3; viability (ATP), % of control = 47.2
Cbs #1: GFP, % of control = 76.8; viability (ATP), % of control = 90.1
Cbs #2: GFP, % of control = 89.8; viability (ATP), % of control = 167
Cbs #3: GFP, % of control = 83.8; viability (ATP), % of control = 115
Spats2 #1: GFP, % of control = 97.4; viability (ATP), % of control = 59.8
Spats2 #2: GFP, % of control = 75.2; viability (ATP), % of control = 122
Spats2 #3: GFP, % of control = 159 (active); viability (ATP), % of control = 136
Nckipsd #1: GFP, % of control = 90.7; viability (ATP), % of control = 83.7
Nckipsd #2: GFP, % of control = 136 (active); viability (ATP), % of control = 98.1
Nckipsd #3: GFP, % of control = 61.6; viability (ATP), % of control = 52.6
Tmem17 #1: GFP, % of control = 118; viability (ATP), % of control = 75.4
Tmem17 #2: GFP, % of control = 77; viability (ATP), % of control = 74.5
Tmem17 #3: GFP, % of control = 87.4; viability (ATP), % of control = 94.5
Ddx20 #1: GFP, % of control = 75.6; viability (ATP), % of control = 79.3
Ddx20 #2: GFP, % of control = 99.3; viability (ATP), % of control = 76.8
Ddx20 #3: GFP, % of control = 57.5; viability (ATP), % of control = 100
Atp6v0a2 #1: GFP, % of control = 74.3; viability (ATP), % of control = 72.3
Atp6v0a2 #2: GFP, % of control = 24.2; viability (ATP), % of control = 8.87
Atp6v0a2 #3: GFP, % of control = 81.8; viability (ATP), % of control = 59.6
Acsbg1 #1: GFP, % of control = 90.5; viability (ATP), % of control = 47.9
Acsbg1 #2: GFP, % of control = 73.5; viability (ATP), % of control = 80.1
Acsbg1 #3: GFP, % of control = 59.3; viability (ATP), % of control = 59.1

Part of the list above, reformatted:
{"Gene": "Cbs", "siRNA no.": 2, "GFP, % of control": 89.8, "viability (ATP), % of control": 167}
{"Gene": "Cbs", "siRNA no.": 3, "GFP, % of control": 83.8, "viability (ATP), % of control": 115}
